Data: patent US12213506B2, “Compositions and methods to counteract processes associated with inflammation and senescence and to support cellular energy and/or metabolism” (priority 2021, dated 2025)
For at least one compound, name, drawing or mass did not settle the structure.

What was measured:
Format in all cases: cell-based
[1] = tested on: IL-6; assay: LPS-induced IL-6 release in primary human monocytes (ELISA); conditions: LPS 10 ng/ml 24 h, across tested concentrations
[2] = tested on: TNF-alpha; assay: LPS-induced TNF-alpha release in primary human monocytes (ELISA); conditions: LPS 10 ng/ml 24 h, across tested concentrations
[3] = tested on: PGE2; assay: LPS-induced PGE2 release in primary human monocytes (EIA); conditions: LPS 10 ng/ml 24 h, across tested concentrations
[4] = tested on: isoprostane; assay: LPS-induced isoprostane release in primary human monocytes (EIA); conditions: LPS 10 ng/ml 24 h, positive control
[5] = tested on: IL-23; assay: LPS-induced IL-23 release in primary human monocytes (ELISA); conditions: LPS 10 ng/ml 24 h
[6] = tested on: IL-8; assay: LPS-induced IL-8 release in primary human monocytes (ELISA); conditions: LPS 10 ng/ml 24 h
[7] = tested on: MCP-1; assay: LPS-induced MCP-1 release in primary human monocytes (ELISA); conditions: LPS 10 ng/ml 24 h
[8] = tested on: IL-1beta; assay: LPS-mediated IL-1beta release in primary human monocytes; conditions: LPS 10 ng/ml 24 h

C[C@@H]1C[C@H]2[C@@H]3CCC4=CC(=O)C=C[C@]4(C)[C@@]3(F)[C@@H](O)C[C@]2(C)[C@@]1(O)C(=O)CO [dexamethasone]
LPS-induced IL-6 release [1]: potently prevented
LPS-induced TNF-alpha release [2]: potently prevented
LPS-induced PGE2 release [3]: potently prevented
LPS-induced isoprostane release [4]: potently prevented
LPS-induced IL-23 release [5]: potently prevented all parameters besides IL-23
LPS-induced IL-8 level [6]: potently prevented
LPS-induced MCP1 level [7]: potently prevented
LPS-mediated IL-1beta release [8]: potently prevented
